Among all 330,000 compounds or so, about 7,700 (2.3%) were called active. Inconclusive means that the source gave no clear call. Such entries were picked first, then a sample of the others. Calls come from the whole dose curve; as a rule, active = well fitted inhibition curve with a large enough effect; inconclusive = small, poorly fitted or top-dose-only effect, or effect the other way; inactive = flat fitted curve, though single readings scatter. A potency beside an inconclusive call is a rough fit, not a confirmed value.
Experiment: qHTS screen for small molecules that inhibit ELG1-dependent DNA repair in human embryonic kidney (HEK293T) cells expressing luciferase-tagged ELG1; note: nearly all actives have a fitted effect of over 55% in size
Conditions: HEK293T ELG1-luciferase reporter, luminescence, 16 h, DNA damage induced by 5-fluorouridine; series mostly up to 46.1 µM
Procedure, shortened: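 Reporter activity after DNA damage by 5-fluorouridine is monitored. Compound-treated cells incubate 16 hr at 37 °C, then ONE-Glo is added for 30 min before luminescence reading.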
With `CCOC(=O)N1CCN(C(=O)C2CC(c3cc(OC)ccc3OC)=NO2)CC1` (stereo unspecified) the Potency was inconclusive: 18.4 µM [inhibitor, partial curve, poor fit].
With `COc1ccccc1Cn1c(=S)[nH]c2cc(C(=O)NCC(OC)OC)ccc2c1=O` the Potency was inconclusive: 18.3 µM [inhibitor, partial curve].
For `COc1cc(-c2nnc3n2CCCCC3)cc(OC)c1OC`, the Potency was inconclusive: 18.3 µM [activator, single point].
With `O=C(COc1ccccc1)Nc1ccc(N2CCN(C(=O)c3cccs3)CC2)cc1` the Potency was inconclusive: 18.3 µM [inhibitor, single point].
For `COC(=O)Nc1ccccc1C(=O)N1CCN(c2ccc(C)cc2)CC1`, the Potency was inconclusive: 20.6 µM [activator, partial curve].
With `O=C1C(=O)c2c(C(=O)c3ccccc3)coc2-c2ccccc21` the Potency was inconclusive: 16.4 µM [activator, partial curve].
For `COc1cc(CCN2C(=O)c3cccc4cccc(c34)C2=O)c(S(=O)(=O)N2CCCCCC2)cc1OC`, the Potency was inconclusive: 7.31 µM [inhibitor, partial curve, poor fit].
For `COc1cc(NC(=O)C2CCC(CNc3c(N4CCCCC4)c(=O)c3=O)CC2)cc(OC)c1` (stereo unspecified), the Potency was inconclusive: 3.66 µM [inhibitor, full curve].
With `NC(=O)CSc1ccc(S(=O)(=O)N2CCCCC2)cn1` the Potency was inconclusive: 0.82 µM [activator, partial curve, poor fit].
In the case of `CCc1ccc2[nH]c(C(=O)Nc3ccc(C)c(F)c3)cc2c1`, the Potency is reported as inconclusive: 18.3 µM [activator, single point].
With `Cc1ccccc1Oc1ccc(-c2nc(N)nc(N)n2)cc1` the Potency was “inactive”.
For `CCC(Sc1ncnc2c1c(-c1ccccc1)cn2-c1ccc(OC)cc1)C(=O)OC` (stereo unspecified), the Potency was inconclusive: 29.1 µM [inhibitor, single point].
In the case of `CCOc1ccccc1CN1C(=O)NC2(CCCCCC2)C1=O`, the Potency is reported as “inactive”.
With `Cc1ccccc1NC(=O)COc1ccc(Br)cc1CNCCCO` the Potency was “inactive”.
In the case of `CCCn1c2c(c(=N)c3c1CCC3)CCCC2`, the Potency is reported as “inactive”.
In the case of `O=c1c2ccccc2oc2c1ccc1ccccc12`, the Potency is reported as inconclusive: 9.2 µM [activator, partial curve].
For `CCOc1ccc2nc(N/C(N)=N/C(=S)Nc3ccc(OC)cc3)nc(C)c2c1`, the Potency was inconclusive: 29.1 µM [inhibitor, single point].
With `Cc1cc(C)nc(NC(=O)C(c2ccccc2)c2ccccc2)c1` the Potency was “inactive”.
For `O=C(NCC1CCCO1)c1ccccc1NC(=O)c1cccc2ccccc12` (stereo unspecified), the Potency was inconclusive: 20.6 µM [inhibitor, partial curve, poor fit].
With `Cc1ccccc1-c1noc(-c2ccc(O)cc2)n1` the Potency was inconclusive: 3.26 µM [activator, full curve].
In the case of `Cn1c(CNc2ccccc2)nc2ccccc21`, the Potency is reported as inconclusive: 11.6 µM [activator, partial curve].
With `Cc1ccccc1C(=O)NCCCCc1ccccc1` the Potency was “inactive”.
With `O=S(=O)(Nc1nc2c(s1)CCCC2)c1ccc2ccccc2c1` the Potency was “inactive”.
For `Cc1oc2c(C)c3oc(=O)c(CCC(=O)NCCCN4CCOCC4)c(C)c3cc2c1C`, the Potency was inconclusive: 0.231 µM [activator, single point].
In the case of `CCOC(=O)C1=C(COC(=O)C(CC)c2ccccc2)NC(=O)NC1C` (stereo unspecified), the Potency is reported as “inactive”.
For `CCc1ccccc1NNC(=O)c1snnc1C`, the Potency was inconclusive: 29.1 µM [inhibitor, single point].
With `O=C(Nc1nnc(-c2ccccc2)o1)Nc1ccccc1Cl` the Potency was “inactive”.
With `CC(C)(C)NC(=O)C[C@H]1C[C@H](C(=O)N2CCOCC2)[C@@]2(CCC3CCCC3)c3[nH]c4ccc(Cl)cc4c3CCN2C1=O` the Potency was inconclusive: 23.1 µM [inhibitor, single point].
For `CN(C)C(=O)N1CCN(C(=O)c2ccco2)CC1`, the Potency was “inactive”.
For `Nc1ccc2nn(-c3cccc4ccccc34)nc2c1`, the Potency was inconclusive: 35.5 µM [activator, single point].
In the case of `CCCCC(=O)Nc1ccc(C(=O)NCCc2ccc(S(N)(=O)=O)cc2)cc1`, the Potency is reported as inconclusive: 32.6 µM [activator, partial curve, poor fit].
In the case of `O=C1CC(c2ccc3c(c2)OCO3)Sc2nc3ccccc3n21` (stereo unspecified), the Potency is reported as inconclusive: 0.651 µM [activator, partial curve, poor fit].
In the case of `O=C(COc1ccccc1)Nc1ccc2c(c1)nc1n2CCOC1`, the Potency is reported as inconclusive: 18.4 µM [activator, partial curve, poor fit].
In the case of `COc1ccc(-c2nc(-c3ccc4c(c3)OCO4)[nH]c2-c2ccc(OC)cc2)cc1`, the Potency is reported as active: 18.4 µM.
In the case of `COc1ccc(Cn2c(-c3ccc(Cl)cc3)c[n+]3ccccc23)cc1`, the Potency is reported as inconclusive: 18.4 µM [activator, partial curve].
For `COc1ccccc1C1CCN(Cc2ccc3ccccc3c2)CC1`, the Potency was “inactive”.
For `Cc1cc(=O)oc2cc(OCc3ccc(C(=O)OCC(=O)Nc4ccc(N(C)C)cc4)cc3)ccc12`, the Potency was “inactive”.
In the case of `COc1ccc(N(CC(=O)N2CC=C(c3ccccc3)CC2)S(=O)(=O)c2c(C)noc2C)cc1`, the Potency is reported as inconclusive: 29.1 µM [inhibitor, single point].
With `O=C(CN1C(=O)COc2ccccc21)Nc1ccc(F)cc1` the Potency was inconclusive: 20.6 µM [activator, partial curve].
For `O=[N+]([O-])c1cc(Cl)ccc1-c1nc(-c2ccccc2)no1`, the Potency was inconclusive: 9.2 µM [activator, partial curve].
In the case of `O=C(c1cc(-c2ccc(Br)cc2)nc2ccccc12)N1CCN(c2ccccc2O)CC1`, the Potency is reported as inconclusive: 29.1 µM [inhibitor, single point].
For `Cn1nccc1C(=O)Nc1sc2c(c1C(N)=O)CCCC2`, the Potency was “inactive”.
With `O=C(Cc1c(F)cccc1Cl)OCC(=O)N1CCc2ccccc21` the Potency was inconclusive: 20.6 µM [activator, partial curve].
In the case of `Cc1ccc(NC(=S)N2CCN(CCN3C(=O)c4cccc5cccc(c45)C3=O)CC2)cc1`, the Potency is reported as inconclusive: 11.6 µM [inhibitor, partial curve].
For `O=C(CN1CC(=O)Nc2ccccc21)NCCc1ccc(Cl)cc1Cl`, the Potency was “inactive”.
In the case of `O=C(Nc1nc2ccc(S(=O)(=O)N3CCCC3)cc2s1)C1CCCCC1`, the Potency is reported as inconclusive: 2.06 µM [inhibitor, full curve].
With `CNC(=S)N/N=C/c1ccc(-c2ccc(Cl)c([N+](=O)[O-])c2)o1` the Potency was inconclusive: 25.9 µM [activator, single point].
In the case of `CC(NC(=O)C(=O)NCC1CCCO1)c1ccccc1` (stereo unspecified), the Potency is reported as “inactive”.
With `COC(=O)c1ccc(C(C(=O)NCc2ccccc2)N(Cc2ccco2)C(=O)c2cnccn2)cc1` (stereo unspecified) the Potency was inconclusive: 7.31 µM [inhibitor, partial curve, poor fit].
For `Cc1cc(O)c(C(C)C)cc1N=C1CSC(=O)N1`, the Potency was “inactive”.
With `O=C(N/N=C/c1ccccc1Cl)c1cccc(F)c1` the Potency was inconclusive: 4.11 µM [activator, partial curve].
With `COc1ccc(OC)c(-c2csc(NC(=O)Cc3ccccc3)n2)c1` the Potency was “inactive”.
In the case of `NC(=O)CSc1n[nH]c(=O)n1CCc1ccccc1`, the Potency is reported as “inactive”.
With `CCOc1cccc(C(=O)N(Cc2ccc(F)cc2)C2CCS(=O)(=O)C2)c1` (stereo unspecified) the Potency was “inactive”.
For `Cc1ccc(CNC(=O)CC(C)S(=O)(=O)c2cc3c(cc2C)NC(=O)CO3)cc1` (stereo unspecified), the Potency was inconclusive: 29.1 µM [inhibitor, single point].
With `COc1cccc(C(=O)Nc2cc(NC(=O)c3cccs3)ccc2C)c1` the Potency was inconclusive: 8.91 µM [inhibitor, partial curve, poor fit].
For `CCOc1ccc(CCNC(=O)c2sc3nc4n(c(=O)c3c2C)CCC4)cc1`, the Potency was inconclusive: 9.2 µM [inhibitor, partial curve, poor fit].
For `O=C(COc1ccc(Cl)cc1)Nc1ccccc1Cl`, the Potency was inconclusive: 20.6 µM [activator, partial curve].
For `Cc1ccccc1Nc1nc(N)nc(COC(=O)c2ccc(O)cc2)n1`, the Potency was inconclusive: 16.4 µM [activator, single point].
In the case of `CN(Cc1nc(Cc2ccccc2F)no1)CC1(N2CCOCC2)CCCCC1`, the Potency is reported as “inactive”.
In the case of `COc1cc(C)ccc1NC(=O)Cc1csc(NC(=O)Nc2ccccc2OC)n1`, the Potency is reported as inconclusive: 29.1 µM [inhibitor, single point].
In the case of `COc1ccc(-n2cnc3cc(NS(=O)(=O)c4ccc(C)cc4)ccc32)cc1`, the Potency is reported as inconclusive: 29.1 µM [inhibitor, single point].
With `O=C(COC(=O)c1cc(=O)[nH]c2ccccc12)c1ccccc1` the Potency was “inactive”.
In the case of `COc1ccc(CC(=O)Nc2cccc(S(=O)(=O)N3CCCCCC3)c2)cc1OC`, the Potency is reported as “inactive”.
In the case of `Fc1ccc(Nc2c3c(nc4ccccc24)CCC3)cc1`, the Potency is reported as inconclusive: 29.1 µM [inhibitor, single point].
With `CCOc1ccc(NC(=O)C(Cc2ccccc2)N2C(=O)c3cccc4cccc(c34)C2=O)cc1` (stereo unspecified) the Potency was inconclusive: 2.06 µM [inhibitor, partial curve].
For `Nc1c(C(=O)Nc2ccc3c(c2)OCCO3)nnn1Cc1cccc(Br)c1`, the Potency was inconclusive: 6.51 µM [activator, single point].
For `CCn1ncc(/C=N\NC(=O)c2csc3ccccc23)c1C`, the Potency was inconclusive: 29.1 µM [activator, single point].
With `O=C(c1ccc(Cl)nc1)c1cccs1` the Potency was “inactive”.
In the case of `CCN(CC(=O)Nc1ccc(S(=O)(=O)N2CCCC2)cc1)CC(=O)Nc1ccccc1C(F)(F)F`, the Potency is reported as inconclusive: 18.3 µM [inhibitor, single point].
In the case of `CN(CC(=O)N1CCc2ccccc2C1)c1ccccc1`, the Potency is reported as “inactive”.

— PubChem BioAssay AID504467 (National Center for Advancing Translational Sciences (NCATS), 2011)
Potency is the fitted concentration of half-maximal effect.
